## Primary screen of a compound library

Sequences of proteins named here, by UniProt entry; tags and fusion partners are left off.
UniProt E9BF75, entry or part of it: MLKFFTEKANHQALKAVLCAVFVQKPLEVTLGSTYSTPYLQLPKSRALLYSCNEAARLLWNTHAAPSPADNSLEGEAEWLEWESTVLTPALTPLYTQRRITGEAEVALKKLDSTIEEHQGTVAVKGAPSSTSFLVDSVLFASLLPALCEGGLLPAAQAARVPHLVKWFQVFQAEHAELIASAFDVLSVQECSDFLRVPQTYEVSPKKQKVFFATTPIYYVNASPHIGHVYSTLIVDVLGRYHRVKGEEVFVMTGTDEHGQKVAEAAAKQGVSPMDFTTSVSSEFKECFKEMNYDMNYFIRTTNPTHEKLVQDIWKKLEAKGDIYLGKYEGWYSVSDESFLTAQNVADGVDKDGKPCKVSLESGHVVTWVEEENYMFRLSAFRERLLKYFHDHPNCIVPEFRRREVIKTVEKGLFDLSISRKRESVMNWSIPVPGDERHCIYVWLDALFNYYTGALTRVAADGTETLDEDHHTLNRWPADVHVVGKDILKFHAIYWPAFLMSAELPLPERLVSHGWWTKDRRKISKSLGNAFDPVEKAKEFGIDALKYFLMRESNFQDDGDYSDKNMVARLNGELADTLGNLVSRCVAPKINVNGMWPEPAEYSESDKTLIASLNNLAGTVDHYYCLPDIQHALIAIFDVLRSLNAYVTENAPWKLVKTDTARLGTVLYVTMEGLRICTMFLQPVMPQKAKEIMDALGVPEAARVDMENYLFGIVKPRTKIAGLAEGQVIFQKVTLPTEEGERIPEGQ

Source: ChEMBL document CHEMBL3988442, “University of Dundee, Small-Polar-MMV Screening Library” (2021).

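Methionyl-tRNA synthetase (putative), Leishmania donovani (UniProt E9BF75). Primary screen of methionyl-tRNA synthetase; the read-out is not stated. The test concentration is not given. The values are filed as inhibition. About 68,000 compounds were tested under these conditions; 0.035% (about 24) showed 50% or more at least once.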

Results are percentages, as filed. How 0% and 100% were set is not recorded. Most values in the screen are low, and negative values occur. This is an unselected part of the compounds tested.

SMILES | inhibition
CN(Cc1ccccc1CNC(=O)C1CNC(=O)N1)C1CCCCC1 (stereo not shown) | 13.13
CS(=O)(=O)CCN(Cc1cccc(O)c1)C1CCC(O)CC1 (stereo not shown) | 11.5
Cc1nc(-c2cccnc2)ncc1C(=O)N1CCC(c2ncc[nH]2)CC1 | 13.51
O=C(CN1CCCCC1)NCc1cccnc1-n1cnc2ccccc21 | 7.692
CN(c1ccncn1)C1CC2(CCN(C(=O)c3cccn3C)C2)C1 (stereo not shown) | 10.12
CNC(=O)C1CNCCN1C(=O)c1ccc(C(F)(F)F)nc1C (stereo not shown) | 11.61
CN1CCC(c2cccc(Cc3ccccc3)n2)CC1 | 19.21
CC(C)C(=O)N1CCC(c2c(C(N)=O)sc3ccccc23)C1 (stereo not shown) | 13.65
CC(CCS(C)(=O)=O)NC(=O)NCc1ccc2c(c1)CCC2 (stereo not shown) | 18.53
CCCn1[nH]cc/c1=N\C(=O)CN1CCc2c(nc(C3CC3)n2C)C1 | 14.92
CN1CCCC(Cc2cncc(C(=O)N3CCOCC3)c2)C1 (stereo not shown) | 6.472
O=C(CCOc1ccccc1F)N1CCOCC1 | 11.15
CSCCC(NC(=O)c1ccc2ccccc2n1)C(=O)O (stereo not shown) | 2.941
c1ncc2c(n1)CN(Cc1cn3ccsc3n1)CC2 | 16.77
COCC(c1cccc(C(F)(F)F)c1)N(C)C(=O)c1ccco1 (stereo not shown) | 21.31
CCCN1CCCn2nc(CNC(=O)CCc3scnc3C)cc2C1 | 14.16
O=C(C1CCCCC1)N1CCC2(CC1)CNCc1ccccc12 | 18.48
O=C(COc1ccc(F)cc1F)N1CCOCC(O)(CN2CCCC2)C1 (stereo not shown) | 4.762
COc1ccc(C(C(=O)O)N2CCC(O)(c3cccnc3)CC2)cc1F (stereo not shown) | 2.835
CN(c1nc(CSc2nnc(Cn3cncn3)o2)cs1)C1CC1 | 9.722
Cc1ccc(C2CSCCN2C(=O)c2cccnc2)cc1 (stereo not shown) | 16.17
CC(C)OCCCNC(=O)CS(=O)(=O)Cc1ccc(Cl)c(Cl)c1 | 7.692
CC(O)CN(C(=O)NC1CC1)C(C)C (stereo not shown) | 6.178
COCC(=O)Nc1ccccc1Sc1c(C)n[nH]c1C | 14.58
Cn1cc(NC(=O)Cn2cc(-c3ccccc3)ncc2=O)cn1 | 5.81
CC(C)c1cc(O)nc(C2CCCN2C(=O)C2CC2)n1 (stereo not shown) | 5.788
CC(=O)N1CCC2(CC1)C(=O)N(C)c1c(F)cccc12 | 10.73
O=C(CSCc1ccncc1)NCC1CCN(C2CC2)C1 (stereo not shown) | 11.45
COCc1nc(C(=O)N2CCCC2c2ccc(OC)cc2)cs1 (stereo not shown) | 18.05
O=C(c1ccoc1)N1CCCCC1c1nc[nH]n1 (stereo not shown) | 8.871
O=S(=O)(c1cccs1)N1CCCn2nnc(CN3CCCCC3)c2C1 | 12.97
Cc1cc(NCc2csc(-c3ccco3)n2)ccc1C(N)=O | 3.073
Cc1cnn(CC2CCCN2C(=O)CCc2ccco2)c1 (stereo not shown) | 0.6623
CC(=O)N1CCCC(c2nnc3n2CCN(C(=O)C2CCCCC2)C3)C1 (stereo not shown) | 6.522
COc1ccc(F)cc1CSCC(=O)N(CCC#N)CCC#N | 3.495
Cc1nn(C)c(N(C)C)c1CNCc1ccc(OCC(N)=O)cc1 | 11.19
CN1CCN(C(=O)c2ncn3c2CNS(=O)(=O)c2ccccc2-3)CC1 | 17.77
CCOCC1CN(Cc2cc(C)on2)Cc2cn(C)nc21 (stereo not shown) | 6.84
Cc1cnn(CC2CCCN2C(=O)c2c(F)cccc2Cl)c1 (stereo not shown) | 15.85
Cc1cc(C)c(C(=O)N2CCc3c(ncn3CCc3ccccc3)C2)[nH]1 | 9.358
CS(=O)(=O)c1cccc(C(=O)NCCCN2CCc3ccccc3C2)c1 | 6.069
CC(c1cccc(S(N)(=O)=O)c1)N(C)CCOC(C)(C)C (stereo not shown) | 19.67
Cc1ccc(C(=O)N2CCc3ncnc(C)c3CC2)cn1 | 9.774
CSc1ccccc1CN1CCCn2nc(CNC(=O)N(C)C)cc2C1 | 9.36
N#Cc1ccnc(SCC2CN=C(N3CCOCC3)S2)c1 (stereo not shown) | 13.89
CNc1cc(C)nc(C2CN(Cc3ccc(Cl)cn3)CCO2)c1 (stereo not shown) | 9.709
Cc1cc(C)c(N(CC(O)CNCc2ccccc2)S(C)(=O)=O)c(C)c1 (stereo not shown) | 24.12
Cc1cc(C)n(CC2CN(CCc3ccncc3)CCO2)n1 (stereo not shown) | 16.39
COCCn1ccc2c(C(=O)O)cccc21 | 18.13
O=C(NCc1cccs1)C1CNCC12CCOCC2 (stereo not shown) | 17.26
Cc1cccc(CN2CCCC(O)(CNCCN3CCCCC3)C2=O)c1 (stereo not shown) | -5.867
Cn1c(SCC(O)COCc2ccc(Cl)cc2)nnc1C1CC1 (stereo not shown) | 10.28
Cc1cc2ncn(C(=O)N3CCCCC3)c2cc1C | 15.43
CC(C)(C)n1ncc2c(=O)n(CC(=O)NCCc3ccccc3)cnc21 | 4.317
Cn1cnc2c(N3CCCC3)nc(C3CCNCC3)cc21 | 14.64
Cc1ccc(N2C[C@H]3OCC[C@H]3[C@H](C(=O)NCC3CC3)C2)nn1 | 12.38
O=C(C1CC1)N1CCN(C(=O)C2CC(=O)N(c3ccccc3Br)C2)CC1 (stereo not shown) | 1.049
Cc1nn(CCO)cc1CN1CCC(N2CCC(O)CC2)CC1 | 11.42
CSc1cccc(CN2CCC(CCC(=O)NCCN(C)C)CC2)c1 | 5.923
Cc1nc(CNc2ccccc2CCC(F)(F)F)cs1 | -13.04
c1ccc2c(c1)OCCC2NCc1ccc(N2CCOCC2)cc1 (stereo not shown) | 2.29
CC(C)S(=O)(=O)N1CCC(Cc2cccc(C(=O)O)c2)C1 (stereo not shown) | 1.875
CC(O)CN1CCN(C(=O)c2cnn(-c3ccccc3Cl)c2)CC1 (stereo not shown) | 14.32
Cc1ccc(CN(C)C(=O)NCC(=O)NC(C)(C)C)s1 | 11.6
COc1cc(C)ccc1C(=O)N1CCC2(CCC(=O)N(C(C)C)C2)CC1 | 11.59
COCC(C)(O)CNC(=O)c1cc(-c2ccc(F)cc2)nn1C (stereo not shown) | 2.542
COCCO[C@H]1CCN(c2cc(OC)ncn2)[C@H]1Cc1cccnc1 | 8.904
CN(Cc1ccccc1)C(=O)CCN1CCC2(CC1)[C@H](O)C[C@@H]2O | 9.045
Cc1ccc2c(c1)c(CNC(C)Cn1ccnc1)nn2C (stereo not shown) | 12.03
CCN1C(=O)CCC12CCCN(Cc1ccc(F)cc1)CC2 (stereo not shown) | 15.71
C=C(Cl)CN(C)C1CCN(CCc2ccccn2)CC1 | 21.23
Cc1cnc(-c2nc(O)c3c(n2)CN(C(=O)C2CC2)CC3)cn1 | 10.13
CNC(=O)C1Cc2ccccc2CN1CCC#N (stereo not shown) | 2.93

For reference, 5 entries once more:

SMILES,inhibition
CCOCC1CN(Cc2cc(C)on2)Cc2cn(C)nc21 (stereo not shown),6.84
CC(c1cccc(S(N)(=O)=O)c1)N(C)CCOC(C)(C)C (stereo not shown),19.67
Cn1cnc2c(N3CCCC3)nc(C3CCNCC3)cc21,14.64
CC(=O)N1CCCC(c2nnc3n2CCN(C(=O)C2CCCCC2)C3)C1 (stereo not shown),6.522
CN1CCC(c2cccc(Cc3ccccc3)n2)CC1,19.21